The values that follow come from publication PMC5477581.

Chains of the proteins cited; added tags and fusions are not shown.
UniProt P09874: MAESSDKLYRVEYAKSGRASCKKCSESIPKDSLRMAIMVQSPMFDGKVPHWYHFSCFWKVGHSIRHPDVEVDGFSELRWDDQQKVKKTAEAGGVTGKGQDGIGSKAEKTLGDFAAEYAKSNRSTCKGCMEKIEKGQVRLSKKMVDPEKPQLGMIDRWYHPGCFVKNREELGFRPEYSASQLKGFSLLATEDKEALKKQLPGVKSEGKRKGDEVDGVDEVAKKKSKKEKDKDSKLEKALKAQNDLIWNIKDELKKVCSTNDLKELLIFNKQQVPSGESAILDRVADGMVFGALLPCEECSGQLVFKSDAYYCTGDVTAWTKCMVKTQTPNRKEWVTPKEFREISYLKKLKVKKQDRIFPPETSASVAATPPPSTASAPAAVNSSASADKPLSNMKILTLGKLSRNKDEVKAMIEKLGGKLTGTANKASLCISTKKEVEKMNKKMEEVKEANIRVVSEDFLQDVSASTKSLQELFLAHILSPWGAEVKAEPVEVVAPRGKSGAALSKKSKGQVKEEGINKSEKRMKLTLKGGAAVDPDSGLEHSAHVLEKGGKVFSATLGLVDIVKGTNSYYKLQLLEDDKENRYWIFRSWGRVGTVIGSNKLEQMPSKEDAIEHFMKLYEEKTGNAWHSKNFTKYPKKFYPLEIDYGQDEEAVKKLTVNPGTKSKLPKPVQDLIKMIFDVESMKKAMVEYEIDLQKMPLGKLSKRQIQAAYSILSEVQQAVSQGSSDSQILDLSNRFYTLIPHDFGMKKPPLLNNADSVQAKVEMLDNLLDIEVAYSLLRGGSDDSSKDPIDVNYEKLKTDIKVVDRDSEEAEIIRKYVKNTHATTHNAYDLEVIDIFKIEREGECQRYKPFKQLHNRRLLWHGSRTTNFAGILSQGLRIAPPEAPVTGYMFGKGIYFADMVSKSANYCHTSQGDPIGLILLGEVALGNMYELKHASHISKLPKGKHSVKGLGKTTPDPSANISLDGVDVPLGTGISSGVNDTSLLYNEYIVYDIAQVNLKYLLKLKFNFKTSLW

Results are given in words; binding and its absence hold for the method and conditions named. Binding seen in cells or lysates may run through a third protein. Some entries that bind do so weakly or less than the wild type. Sequences can lack the tags named with a protein.

In the assay the target is T1, FLAG-AIMP2 (aminoacyl tRNA synthetase complex-interacting multifunctional protein 2) (UniProt Q13155).
T1 sequence: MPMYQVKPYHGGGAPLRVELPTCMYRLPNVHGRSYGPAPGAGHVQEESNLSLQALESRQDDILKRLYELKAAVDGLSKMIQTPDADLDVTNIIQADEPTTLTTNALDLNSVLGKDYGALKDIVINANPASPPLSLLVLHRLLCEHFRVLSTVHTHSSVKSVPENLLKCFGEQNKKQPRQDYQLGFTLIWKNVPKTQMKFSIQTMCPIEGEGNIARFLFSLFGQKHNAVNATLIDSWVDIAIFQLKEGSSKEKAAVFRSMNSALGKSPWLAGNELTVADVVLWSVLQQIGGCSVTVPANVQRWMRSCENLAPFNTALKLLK
As to the kind of experiment: co-IP; anti-FLAG antibody on protein G Sepharose; lysates (1% NP-40 in PBS) of SH-SY5Y cells transfected with FLAG-AIMP2 with mock, WT VPS35 or D620N VPS35; 4 °C overnight; washes incl. 500 mM NaCl buffer; blots for FLAG, PARP1; IgG as negative control.

Take “poly(ADP-ribose) polymerase-1 (PARP1), endogenous (from UniProt P09874 1-1014) (enzyme)”: the binding result was “binds”.
